{
  "source": "paper doi:10.1101/2023.02.20.529182",
  "biological_target": "DjlA variant with a C-terminal HA-tag (DjlA-HA) (C. crescentus)",
  "experiment": "co-IP",
  "note": "No constants are given. Whether binding was seen depends on the method and setting. Binding seen in cells or lysates may run through a third protein. Binding calls can cover weak binding; strength is not graded here.",
  "data": [
    {"substance": "TipR (from UniProt A0A0H3C6G9)", "values": [
      {"measurement": "binding", "result": "binds"}
    ]}
  ]
}
